Laboratory results from patent publication US12202828B2, “Bicyclic heterocycle compounds and their uses in therapy” (ASTEX THERAPEUTICS LIMITED, priority 2013, dated 2025).

Sequences of proteins named here, by UniProt entry; tags and fusion partners are left off.
UniProt Q12809, whole entry: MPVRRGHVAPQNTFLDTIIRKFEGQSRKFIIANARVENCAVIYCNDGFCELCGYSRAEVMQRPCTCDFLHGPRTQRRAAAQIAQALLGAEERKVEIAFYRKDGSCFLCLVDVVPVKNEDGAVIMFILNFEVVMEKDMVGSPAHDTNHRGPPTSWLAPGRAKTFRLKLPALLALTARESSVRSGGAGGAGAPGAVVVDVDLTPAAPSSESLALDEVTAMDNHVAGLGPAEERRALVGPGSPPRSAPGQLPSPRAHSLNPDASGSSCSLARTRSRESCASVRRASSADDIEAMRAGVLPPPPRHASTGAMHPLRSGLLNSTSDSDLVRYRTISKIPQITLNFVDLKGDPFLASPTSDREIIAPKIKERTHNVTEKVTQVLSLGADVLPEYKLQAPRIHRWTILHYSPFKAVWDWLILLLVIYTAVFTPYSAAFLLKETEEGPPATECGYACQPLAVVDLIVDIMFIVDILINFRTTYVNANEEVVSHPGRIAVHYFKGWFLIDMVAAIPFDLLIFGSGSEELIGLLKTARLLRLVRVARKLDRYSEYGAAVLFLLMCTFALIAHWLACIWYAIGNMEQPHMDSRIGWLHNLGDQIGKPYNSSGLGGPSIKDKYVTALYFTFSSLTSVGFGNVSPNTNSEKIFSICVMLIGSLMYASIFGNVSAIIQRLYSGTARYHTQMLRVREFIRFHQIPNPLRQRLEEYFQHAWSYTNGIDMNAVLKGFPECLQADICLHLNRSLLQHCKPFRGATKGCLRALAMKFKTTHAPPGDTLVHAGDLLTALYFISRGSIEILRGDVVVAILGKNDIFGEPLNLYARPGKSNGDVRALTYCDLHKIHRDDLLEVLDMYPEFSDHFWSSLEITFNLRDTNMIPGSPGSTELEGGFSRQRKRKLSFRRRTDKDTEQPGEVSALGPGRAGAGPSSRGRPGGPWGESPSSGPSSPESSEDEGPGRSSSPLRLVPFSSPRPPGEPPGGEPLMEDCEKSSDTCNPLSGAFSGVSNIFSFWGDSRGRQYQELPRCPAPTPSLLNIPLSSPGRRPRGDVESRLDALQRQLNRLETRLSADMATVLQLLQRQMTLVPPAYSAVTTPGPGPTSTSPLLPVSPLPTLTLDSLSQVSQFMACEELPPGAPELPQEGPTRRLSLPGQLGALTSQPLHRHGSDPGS

Target: hERG ion channel (Homo sapiens, UniProt Q12809)
Experiment: Population Patch Clamp (PPC) hERG assay in CHO K1 cells
Type: cell-based
Conditions: @ 10 μM; tested form: 2HCl

C[C@@H]1CN(CC(=O)N2CC(C)(C)c3ncc(Cc4ccc(F)cc4)cc32)[C@@H](CN2CCOC[C@H]2C)CN1
hERG PPC (PI): 42% @ 10 (n = 2) and 38% @ 10 (n = 3)

Some entries of the source have several records that differ or are many. This is not the full list of results. An entry can have further records. Results that share an entry differ for a reason that is not stated; some may be repeats, others may stem from another dose, organism or construct than stated.
